These results are taken from paper doi:10.1101/2023.08.31.555694.

Assay [1] has as its target T1, GFP-AGO1 fusion protein (Arabidopsis thaliana Argonaute 1) (A. thaliana) (UniProt O04379).
T1 sequence: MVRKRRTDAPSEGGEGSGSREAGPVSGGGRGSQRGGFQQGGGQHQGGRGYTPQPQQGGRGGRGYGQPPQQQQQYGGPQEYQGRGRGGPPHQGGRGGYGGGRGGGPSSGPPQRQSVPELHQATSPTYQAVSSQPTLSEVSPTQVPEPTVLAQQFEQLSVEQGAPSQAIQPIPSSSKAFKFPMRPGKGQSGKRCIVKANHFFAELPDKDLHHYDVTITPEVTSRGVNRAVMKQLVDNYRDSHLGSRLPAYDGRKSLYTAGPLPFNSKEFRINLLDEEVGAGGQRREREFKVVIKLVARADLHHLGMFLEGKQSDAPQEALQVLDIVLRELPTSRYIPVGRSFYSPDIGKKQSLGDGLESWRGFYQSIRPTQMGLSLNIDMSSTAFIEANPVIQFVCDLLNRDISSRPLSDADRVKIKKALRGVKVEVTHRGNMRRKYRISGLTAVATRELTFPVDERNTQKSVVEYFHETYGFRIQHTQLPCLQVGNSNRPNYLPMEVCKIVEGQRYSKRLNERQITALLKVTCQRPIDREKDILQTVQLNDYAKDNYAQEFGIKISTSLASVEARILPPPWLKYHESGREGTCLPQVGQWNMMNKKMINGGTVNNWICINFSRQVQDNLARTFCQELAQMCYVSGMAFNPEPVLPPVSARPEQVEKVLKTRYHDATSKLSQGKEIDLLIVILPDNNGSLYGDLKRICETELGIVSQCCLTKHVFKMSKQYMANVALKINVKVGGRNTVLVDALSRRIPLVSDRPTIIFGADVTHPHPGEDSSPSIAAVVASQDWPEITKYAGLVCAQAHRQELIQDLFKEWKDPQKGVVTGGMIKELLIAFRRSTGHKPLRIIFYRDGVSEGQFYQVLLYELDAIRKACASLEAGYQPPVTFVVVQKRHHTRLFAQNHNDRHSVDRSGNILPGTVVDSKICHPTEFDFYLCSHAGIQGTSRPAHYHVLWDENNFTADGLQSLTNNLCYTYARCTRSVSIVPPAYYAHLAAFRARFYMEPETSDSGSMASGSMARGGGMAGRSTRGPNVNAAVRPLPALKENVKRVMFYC
Description: co-IP.

In assay [2] the target is T2, Argonaute 1 protein-yellow fluorescent protein N-proximal domain fusion protein (A. thaliana) (UniProt O04379).
T2 sequence: T1 sequence
Nature of the assay: split reporter.

No constants are given. Whether binding was seen depends on the method and setting. In cells and extracts the contact can be indirect. Binding can be weak; no strength is given. Where a sequence is shown, tags or fusion partners need not be part of it.

Consider “Fny-CMV 2b protein, C-terminal RFP fusion (cucumber mosaic virus, strain Fny)”, for which, in assay [1], the binding entry is on record as “binds”.

“Fny-CMV 2b protein, split-YFP fusion for BiFC (cucumber mosaic virus, strain Fny)”: the binding entry in assay [2] was “binds”.

On to “Ho-CMV 2b protein (recapitulated from Fny-CMV 2b), C-terminal RFP fusion (cucumber mosaic virus, strain Ho)”, for which the binding result in assay [1] is listed as “binds”.

As to “Ho-CMV 2b protein (recapitulated from Fny-CMV 2b), split-YFP fusion for BiFC (cucumber mosaic virus, strain Ho)”, the binding result in assay [2] is “binds”.
